“And” between values parts separate entries of the source, which are not always exact repeats. Equal entries are not always repeated.

The chains are these.
B1: SNAP-mGluR3-C127A (protein)
chain: LGDHNFMRREIKIEGDLVLGGLFPINEKGTGTEECGRINEDRGIQRLEAMLFAIDEINKDNYLLPGVKLGVHILDTCSRDTYALEQSLEFVRASLTKVDEAEYMAPDGSYAIQENIPLLIAGVIGGSYSSVSIQVANLLRLFQIPQISYASTSAKLSDKSRYDYFARTVPPDFYQAKAMAEILRFFNWTYVSTVASEGDYGETGIEAFEQEARLRNICIATAEKVGRSNIRKSYDSVIRELLQKPNARVVVLFMRSDDSRELIAAANRVNASFTWVASDGWGAQESIVKGSEHVAYGAITLELASHPVRQFDRYFQSLNPYNNHRNPWFRDFWEQKFQCSLQNKRNHRQVCDKHLAIDSSNYEQESKIMFVVNAVYAMAHALHKMQRTLCPNTTKLCDAMKILDGKKLYKEYLLKINFTAPFNPNKGADSIVKFDTFGDGMGRYNVFNLQQTGGKYSYLKVGHWAETLSLDVDSIHWSRNSVPTSQCSDPCAPNEMKNMQPGDVCCWICIPCEPYEYLVDEFTCMDCGPGQWPTADLSGCYNLPEDYIKWEDAWAIGPVTIACLGFLCTCIVITVFIKHNNTPLVKASGRELCYILLFGVSLSYCMTFFFIAKPSPVICALRRLGLGTSFAICYSALLTKTNCIARIFDGVKNGAQRPKFISPSSQVFICLGLILVQIVMVSVWLILETPGTRRYTLPEKRETVILKCNVKDSSMLISLTYDVVLVILCTVYAFKTRKCPENFNEAKFIGFTMYTTCIIWLAFLPIFYVTSSDYRVQTTTMCISVSLSGFVVLGCLFAPKVHIVLFQPQKNVVTHRLHLNRFSVSGTATTYSQSSASTYVPTVCNGREVLDSTTSSL
modifications: SNAP tag labelled with BG-LD555 (BG-LD655 in two-colour SiMPull); left off: HA, N-terminal, kept | SNAP, N-terminal, kept
B2: SNAP-mGluR3-C127A-3xTM4 (protein)
chain: LGDHNFMRREIKIEGDLVLGGLFPINEKGTGTEECGRINEDRGIQRLEAMLFAIDEINKDNYLLPGVKLGVHILDTCSRDTYALEQSLEFVRASLTKVDEAEYMAPDGSYAIQENIPLLIAGVIGGSYSSVSIQVANLLRLFQIPQISYASTSAKLSDKSRYDYFARTVPPDFYQAKAMAEILRFFNWTYVSTVASEGDYGETGIEAFEQEARLRNICIATAEKVGRSNIRKSYDSVIRELLQKPNARVVVLFMRSDDSRELIAAANRVNASFTWVASDGWGAQESIVKGSEHVAYGAITLELASHPVRQFDRYFQSLNPYNNHRNPWFRDFWEQKFQCSLQNKRNHRQVCDKHLAIDSSNYEQESKIMFVVNAVYAMAHALHKMQRTLCPNTTKLCDAMKILDGKKLYKEYLLKINFTAPFNPNKGADSIVKFDTFGDGMGRYNVFNLQQTGGKYSYLKVGHWAETLSLDVDSIHWSRNSVPTSQCSDPCAPNEMKNMQPGDVCCWICIPCEPYEYLVDEFTCMDCGPGQWPTADLSGCYNLPEDYIKWEDAWAIGPVTIACLGFLCTCIVITVFIKHNNTPLVKASGRELCYILLFGVSLSYCMTFFFIAKPSPVICALRRLGLGTSFAICYSALLTKTNCIARIFDGVKNGAQRPKFISPASQVAICLALILVQIVMVSVWLILETPGTRRYTLPEKRETVILKCNVKDSSMLISLTYDVVLVILCTVYAFKTRKCPENFNEAKFIGFTMYTTCIIWLAFLPIFYVTSSDYRVQTTTMCISVSLSGFVVLGCLFAPKVHIVLFQPQKNVVTHRLHLNRFSVSGTATTYSQSSASTYVPTVCNGREVLDSTTSSL
modifications: SNAP tag labelled with BG-LD555; left off: HA, N-terminal, kept | SNAP, N-terminal, kept
B3: SNAP-mGluR2-C121A (protein)
chain: EGPAKKVLTLEGDLVLGGLFPVHQKGGPAEECGPVNEHRGIQRLEAMLFALDRINRDPHLLPGVRLGAHILDSCSKDTHALEQALDFVRASLSRGADGSRHIAPDGSYATHSDAPTAVTGVIGGSYSDVSIQVANLLRLFQIPQISYASTSAKLSDKSRYDYFARTVPPDFFQAKAMAEILRFFNWTYVSTVASEGDYGETGIEAFELEARARNICVATSEKVGRAMSRAAFEGVVRALLQKPSARVAVLFTRSEDARELLAATQRLNASFTWVASDGWGALESVVAGSERAAEGAITIELASYPISDFASYFQSLDPWNNSRNPWFREFWEERFHCSFRQRDCAAHSLRAVPFEQESKIMFVVNAVYAMAHALHNMHRALCPNTTHLCDAMRPVNGRRLYKDFVLNVKFDAPFRPADTDDEVRFDRFGDGIGRYNIFTYLRAGSGRYRYQKVGYWAEGLTLDTSFIPWASPSAGPLPASRCSEPCLQNEVKSVQPGEVCCWLCIPCQPYEYRLDEFTCADCGLGYWPNASLTGCFELPQEYIRWGDAWAVGPVTIACLGALATLFVLGVFVRHNATPVVKASGRELCYILLGGVFLCYCMTFVFIAKPSTAVCTLRRLGLGTAFSVCYSALLTKTNRIARIFGGAREGAQRPRFISPASQVAICLALISGQLLIVAAWLVVEAPGTGKETAPERREVVTLRCNHRDASMLGSLAYNVLLIALCTLYAFKTRKCPENFNEAKFIGFTMYTTCIIWLAFLPIFYVTSSDYRVQTTTMCVSVSLSGSVVLGCLFAPKLHIILFQPQKNVVSHRAPTSRFGSAAPRASANLGQGSGSQFVPTVCNGREVVDSTTSSL
modifications: SNAP tag labelled with BG-LD555 (BG-LD655 in two-colour SiMPull); left off: HA, N-terminal, kept | SNAP, N-terminal, kept
B4: SNAP-mGluR2-C121A-I779A (protein)
chain: EGPAKKVLTLEGDLVLGGLFPVHQKGGPAEECGPVNEHRGIQRLEAMLFALDRINRDPHLLPGVRLGAHILDSCSKDTHALEQALDFVRASLSRGADGSRHIAPDGSYATHSDAPTAVTGVIGGSYSDVSIQVANLLRLFQIPQISYASTSAKLSDKSRYDYFARTVPPDFFQAKAMAEILRFFNWTYVSTVASEGDYGETGIEAFELEARARNICVATSEKVGRAMSRAAFEGVVRALLQKPSARVAVLFTRSEDARELLAATQRLNASFTWVASDGWGALESVVAGSERAAEGAITIELASYPISDFASYFQSLDPWNNSRNPWFREFWEERFHCSFRQRDCAAHSLRAVPFEQESKIMFVVNAVYAMAHALHNMHRALCPNTTHLCDAMRPVNGRRLYKDFVLNVKFDAPFRPADTDDEVRFDRFGDGIGRYNIFTYLRAGSGRYRYQKVGYWAEGLTLDTSFIPWASPSAGPLPASRCSEPCLQNEVKSVQPGEVCCWLCIPCQPYEYRLDEFTCADCGLGYWPNASLTGCFELPQEYIRWGDAWAVGPVTIACLGALATLFVLGVFVRHNATPVVKASGRELCYILLGGVFLCYCMTFVFIAKPSTAVCTLRRLGLGTAFSVCYSALLTKTNRIARIFGGAREGAQRPRFISPASQVAICLALISGQLLIVAAWLVVEAPGTGKETAPERREVVTLRCNHRDASMLGSLAYNVLLIALCTLYAFKTRKCPENFNEAKFIGFTMYTTCIIWLAFLPAFYVTSSDYRVQTTTMCVSVSLSGSVVLGCLFAPKLHIILFQPQKNVVSHRAPTSRFGSAAPRASANLGQGSGSQFVPTVCNGREVVDSTTSSL
modifications: SNAP tag labelled with BG-LD555; left off: HA, N-terminal, kept | SNAP, N-terminal, kept
B5: SNAP-mGluR2-C121A-3xTM4-I779A (protein)
chain: EGPAKKVLTLEGDLVLGGLFPVHQKGGPAEECGPVNEHRGIQRLEAMLFALDRINRDPHLLPGVRLGAHILDSCSKDTHALEQALDFVRASLSRGADGSRHIAPDGSYATHSDAPTAVTGVIGGSYSDVSIQVANLLRLFQIPQISYASTSAKLSDKSRYDYFARTVPPDFFQAKAMAEILRFFNWTYVSTVASEGDYGETGIEAFELEARARNICVATSEKVGRAMSRAAFEGVVRALLQKPSARVAVLFTRSEDARELLAATQRLNASFTWVASDGWGALESVVAGSERAAEGAITIELASYPISDFASYFQSLDPWNNSRNPWFREFWEERFHCSFRQRDCAAHSLRAVPFEQESKIMFVVNAVYAMAHALHNMHRALCPNTTHLCDAMRPVNGRRLYKDFVLNVKFDAPFRPADTDDEVRFDRFGDGIGRYNIFTYLRAGSGRYRYQKVGYWAEGLTLDTSFIPWASPSAGPLPASRCSEPCLQNEVKSVQPGEVCCWLCIPCQPYEYRLDEFTCADCGLGYWPNASLTGCFELPQEYIRWGDAWAVGPVTIACLGALATLFVLGVFVRHNATPVVKASGRELCYILLGGVFLCYCMTFVFIAKPSTAVCTLRRLGLGTAFSVCYSALLTKTNRIARIFGGAREGAQRPRFISPSSQVFICLGLISGQLLIVAAWLVVEAPGTGKETAPERREVVTLRCNHRDASMLGSLAYNVLLIALCTLYAFKTRKCPENFNEAKFIGFTMYTTCIIWLAFLPAFYVTSSDYRVQTTTMCVSVSLSGSVVLGCLFAPKLHIILFQPQKNVVSHRAPTSRFGSAAPRASANLGQGSGSQFVPTVCNGREVVDSTTSSL
modifications: SNAP tag labelled with BG-LD555; left off: HA, N-terminal, kept | SNAP, N-terminal, kept
B6: SNAP-mGluR2-C121A-3xTM4 (protein)
chain: EGPAKKVLTLEGDLVLGGLFPVHQKGGPAEECGPVNEHRGIQRLEAMLFALDRINRDPHLLPGVRLGAHILDSCSKDTHALEQALDFVRASLSRGADGSRHIAPDGSYATHSDAPTAVTGVIGGSYSDVSIQVANLLRLFQIPQISYASTSAKLSDKSRYDYFARTVPPDFFQAKAMAEILRFFNWTYVSTVASEGDYGETGIEAFELEARARNICVATSEKVGRAMSRAAFEGVVRALLQKPSARVAVLFTRSEDARELLAATQRLNASFTWVASDGWGALESVVAGSERAAEGAITIELASYPISDFASYFQSLDPWNNSRNPWFREFWEERFHCSFRQRDCAAHSLRAVPFEQESKIMFVVNAVYAMAHALHNMHRALCPNTTHLCDAMRPVNGRRLYKDFVLNVKFDAPFRPADTDDEVRFDRFGDGIGRYNIFTYLRAGSGRYRYQKVGYWAEGLTLDTSFIPWASPSAGPLPASRCSEPCLQNEVKSVQPGEVCCWLCIPCQPYEYRLDEFTCADCGLGYWPNASLTGCFELPQEYIRWGDAWAVGPVTIACLGALATLFVLGVFVRHNATPVVKASGRELCYILLGGVFLCYCMTFVFIAKPSTAVCTLRRLGLGTAFSVCYSALLTKTNRIARIFGGAREGAQRPRFISPSSQVFICLGLISGQLLIVAAWLVVEAPGTGKETAPERREVVTLRCNHRDASMLGSLAYNVLLIALCTLYAFKTRKCPENFNEAKFIGFTMYTTCIIWLAFLPIFYVTSSDYRVQTTTMCVSVSLSGSVVLGCLFAPKLHIILFQPQKNVVSHRAPTSRFGSAAPRASANLGQGSGSQFVPTVCNGREVVDSTTSSL
modifications: SNAP tag labelled with BG-LD555; left off: HA, N-terminal, kept | SNAP, N-terminal, kept

For this series, the system named is SNAP-tagged mGluR2 and mGluR3 constructs. In words: SiMPull subunit counting, percent dimerization of constructs without ligand. Also noted: species or system rat. Particulars: construct without ligand; single replicates per experiment day.
Regarding B1, the “% Dimerization” value is 59.17% and 57.42% and 54.46% and 49.38% and 38.92% and 54.20% and 39.61% and 50.12%.

Regarding B2, the “% Dimerization” value is 79.20% and 65.86% and 67.99% and 75.93% and 87.10% and 71.74%.

Consider B3, for which the “% Dimerization” value is 84.68% and 85.56% and 89.29% and 98.62% and 88.80% and 100.98% and 90.75%.

As to B4, the “% Dimerization” value is 69.19% and 59.94% and 71.25% and 56.67% and 67.46% and 67.92%.

On to B5, for which the “% Dimerization” value is 39.40% and 50.61% and 41.61% and 48.46% and 50.00% and 51.94%.

As for B6, the “% Dimerization” value was 66.64% and 80.00% and 56.67% and 67.94% and 64.29% and 76.71% and 70.79%.

These data come from paper PMC8102066 (eLife, 2021).
